From the supplement of paper PMC4604168 (melanoma cell lines)
This is one part of the list. Repeats are few or missing, and single values can be far off.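 Cells were imaged in 1,536-well plates, and nuclei stained with an antibody against cleaved PARP were counted against all DNA-stained nuclei to give the apoptosis fraction. Screening doses were chosen to leave most cells alive, and resting and induced cleaved-PARP levels differ strongly between cell lines.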

Experiments:
Assay in all cases: cleaved PARP positive nuclei fraction relative to DMSO control; melanoma cells; higher = more apoptosis
Conditions in all cases: library dose: low library concentration; 72 h
501Mel = tested on: 501Mel
A101D = tested on: A101D
A2058 = tested on: A2058
A375 = tested on: A375
C32 = tested on: C32
CBRC013 = tested on: CBRC013 (line from a melanoma biopsy)
CBRC014 = tested on: CBRC014 (line from a melanoma biopsy)
CBRC016 = tested on: CBRC016 (line from a melanoma biopsy)
CBRC017 = tested on: CBRC017 (line from a melanoma biopsy)

SMILES	cleaved PARP positive nuclei fraction (501Mel) [%]	cleaved PARP positive nuclei fraction (A101D) [%]	cleaved PARP positive nuclei fraction (A2058) [%]	cleaved PARP positive nuclei fraction (A375) [%]	cleaved PARP positive nuclei fraction (C32) [%]	cleaved PARP positive nuclei fraction (CBRC013) [%]	cleaved PARP positive nuclei fraction (CBRC014) [%]	cleaved PARP positive nuclei fraction (CBRC016) [%]	cleaved PARP positive nuclei fraction (CBRC017) [%]
Cc1cc([N+](=O)[O-])ccc1NS(=O)(=O)c1cc(Cl)ccc1Cl + Cn1cc(/C=C2\C(=O)Nc3cccnc32)c2ccccc21 [GW441756] (first compound 1 µM, partner dose 0.4 µM)	35.4	224	139	260	71.4	55	183	1680	390
NCC(=O)Nc1ccc(-n2nc(C(F)(F)F)cc2-c2ccc3c(ccc4ccccc43)c2)cc1 + CCc1ccc(CCOc2ccc(CC3SC(=O)NC3=O)cc2)nc1 [pioglitazone] (first compound 1 µM, partner dose 2 µM)	138	99.7	75.8	2040	45.6	152	92	38.4	94.6
O=c1cc(-c2cccc3c2Sc2ccccc2S3)oc(N2CCOCC2)c1 + CC(C)CCN1c2nc(Nc3cc(F)c(O)c(F)c3)ncc2N(C)C(=O)C1C [BID1870] (first compound 1 µM, partner dose 0.2 µM)	78.6	78.8	80.5	127	38.3	90.2	113	42.2	79.7
COc1cc2ncnc(Nc3ccc(Oc4ccccc4)cc3)c2cc1OC + COc1cc(N2CCC(N3CCN(C)CC3)CC2)ccc1Nc1ncc(Cl)c(Nc2ccccc2S(=O)(=O)C(C)C)n1 [NVP-TAE684] (first compound 2 µM, partner dose 0.08 µM)	79.4	97.9	174	158	139	94.3	94.3	79.7	98.9
COC(=O)c1sccc1S(=O)(=O)Nc1ccc(Nc2ccccc2)cc1OC + COc1ccc2c(c1)CCC1C2CCC2(C)C(NCCCCCCN3C(=O)C=CC3=O)CCC12 [U73122] (first compound 1 µM, partner dose 0.4 µM)	63.6	104	84.3	180	90.8	77.9	193	59.6	42.5
O=C(O)C(=O)Nc1sc2c(c1C(=O)O)CCNC2 + c1cc(-c2cnn3cc(-c4ccc(OCCN5CCCCC5)cc4)cnc23)ccn1 [Dorsomorphin] (first compound 1.66667 µM, partner dose 0.4 µM)	80.3	122	144	72.4	64.1	258	89.2	73.8	136
COc1cc2ncnc(Nc3ccc(Oc4ccccc4)cc3)c2cc1OC + Cc1cc([N+](=O)[O-])ccc1NS(=O)(=O)c1cc(Cl)ccc1Cl [FH535] (first compound 2 µM, partner dose 1 µM)	48.8	240	116	69.1	142	330	132	1680	393
O=C(Nc1ccccc1)c1cc([N+](=O)[O-])ccc1Cl + O=c1cc(-c2cccc3c2Sc2ccccc2S3)oc(N2CCOCC2)c1 [KU55933] (first compound 2 µM, partner dose 1 µM)	68.3	106	63.1	17.4	123	36.6	93.9	39.3	78.9
NCC(=O)Nc1ccc(-n2nc(C(F)(F)F)cc2-c2ccc3c(ccc4ccccc43)c2)cc1 + CCN(CC)CCCCNc1ncc2cc(-c3cc(OC)cc(OC)c3)c(NC(=O)NC(C)(C)C)nc2n1 [PD173074] (first compound 1 µM, partner dose 0.1 µM)	353	58.6	69.6	343	72.7	222	89.9	126	114
COc1cc2c(Oc3ccc4[nH]c(C)cc4c3F)ncnc2cc1OCCCN1CCCC1 [cediranib] + Cn1cc(/C=C2\C(=O)Nc3cccnc32)c2ccccc21 [GW441756] (first compound 0.4 µM, partner dose 0.4 µM)	51.2	103	55.3	98.4	51.4	156	92.7	38.1	93.4
COc1ccc(-c2ccc3c(N4CCOCC4)nc(N4C[C@@H](C)O[C@@H](C)C4)nc3n2)cc1CO + Oc1nc(-c2ccc(C(F)(F)F)cc2)nc2c1CSCC2 [XAV939] (first compound 0.02 µM, partner dose 2 µM)	161	122	86.1	28.7	61	48	107	55.9	67
CCc1ccc(CCOc2ccc(CC3SC(=O)NC3=O)cc2)nc1 (stereo not given) [pioglitazone] + c1cc(-c2cnn3cc(-c4ccc(OCCN5CCCCC5)cc4)cnc23)ccn1 [Dorsomorphin] (first compound 2 µM, partner dose 0.4 µM)	192	94.9	62.2	137	107	30	82.4	66.1	68.8
CN(C)S(=O)(=O)c1ccc2c(c1)/C(=C/c1cc3c([nH]1)CCCC3)C(=O)N2 + COc1cc(N2CCC(N3CCN(C)CC3)CC2)ccc1Nc1ncc(Cl)c(Nc2ccccc2S(=O)(=O)C(C)C)n1 [NVP-TAE684] (first compound 0.4 µM, partner dose 0.08 µM)	94.8	80.3	133	180	192	634	109	58.6	87.6
COC(=O)c1sccc1S(=O)(=O)Nc1ccc(Nc2ccccc2)cc1OC + O=C(O)C(=O)Nc1sc2c(c1C(=O)O)CCNC2 [TCS401] (first compound 1 µM, partner dose 1.66667 µM)	–	108	103	150	69.5	408	104	31.9	94.8
O=C(Nc1ccccc1)c1cc([N+](=O)[O-])ccc1Cl + CCN(CC)CCCCNc1ncc2cc(-c3cc(OC)cc(OC)c3)c(NC(=O)NC(C)(C)C)nc2n1 [PD173074] (first compound 2 µM, partner dose 0.1 µM)	167	48.8	79.9	57	72.6	369	92.1	51.9	206
CN(C)S(=O)(=O)c1ccc2c(c1)/C(=C/c1cc3c([nH]1)CCCC3)C(=O)N2 + CC(C)CCN1c2nc(Nc3cc(F)c(O)c(F)c3)ncc2N(C)C(=O)C1C [BID1870] (first compound 0.4 µM, partner dose 0.2 µM)	–	180	75.7	40.7	103	49.5	105	85.4	104
COc1cc2c(Oc3ccc4[nH]c(C)cc4c3F)ncnc2cc1OCCCN1CCCC1 [cediranib] + COc1ccc(COc2ccc(Cc3cnc(N)nc3N)cc2OC)cc1 [GW2580] (first compound 0.4 µM, partner dose 1 µM)	160	52.8	200	93.4	149	102	94.9	69.2	185
N#Cc1c(O)c2c(-c3ccc(-c4ccccc4O)cc3)csc2[nH]c1=O + COC(=O)c1sccc1S(=O)(=O)Nc1ccc(Nc2ccccc2)cc1OC [GSK0660] (first compound 2 µM, partner dose 1 µM)	–	94.4	148	22.5	101	209	98.8	44.1	85.7
CCc1ccc(CCOc2ccc(CC3SC(=O)NC3=O)cc2)nc1 (stereo not given) [pioglitazone] + Oc1nc(-c2ccc(C(F)(F)F)cc2)nc2c1CSCC2 [XAV939] (first compound 2 µM, partner dose 2 µM)	40.7	318	187	77.6	144	249	102	61.9	79.5
NCC(=O)Nc1ccc(-n2nc(C(F)(F)F)cc2-c2ccc3c(ccc4ccccc43)c2)cc1 + COc1cc(N2CCC(N3CCN(C)CC3)CC2)ccc1Nc1ncc(Cl)c(Nc2ccccc2S(=O)(=O)C(C)C)n1 [NVP-TAE684] (first compound 1 µM, partner dose 0.08 µM)	–	56.1	47.6	4730	56.6	119	82.3	79.9	79.5
O=C1NC(=O)/C(=C/c2ccc(-c3ccc(F)cc3O)o2)S1 + CCCCCCCCCCCC1=C(O)C(=O)C=C(O)C1=O [Embelin] (first compound 1 µM, partner dose 1.2 µM)	–	124	112	44.8	102	78.6	95.7	74.1	193
NCC(=O)Nc1ccc(-n2nc(C(F)(F)F)cc2-c2ccc3c(ccc4ccccc43)c2)cc1 + COc1cc2ncnc(Nc3ccc(Oc4ccccc4)cc3)c2cc1OC [SrcI1] (first compound 1 µM, partner dose 2 µM)	623	105	91.5	1310	79	442	89.7	63.7	77.1
COc1cc2c(Oc3ccc4[nH]c(C)cc4c3F)ncnc2cc1OCCCN1CCCC1 [cediranib] + O=c1cc(-c2cccc3c2Sc2ccccc2S3)oc(N2CCOCC2)c1 [KU55933] (first compound 0.4 µM, partner dose 1 µM)	–	104	52.3	90.8	128	110	74.3	81.6	86.8
CN(NC(=O)CC(=O)NN(C)C(=S)c1ccccc1)C(=S)c1ccccc1 + COc1cc(N2CCC(N3CCN(C)CC3)CC2)ccc1Nc1ncc(Cl)c(Nc2ccccc2S(=O)(=O)C(C)C)n1 [NVP-TAE684] (first compound 0.006 µM, partner dose 0.08 µM)	263	156	71.9	2720	584	129	704	245	114
